Data on 17 compounds can be found in PubChem BioAssay AID463183 (Sanford-Burnham Center for Chemical Genomics, 2010).

The list shows a part of the results. These are further read-outs of the screen, such as a control signal, another cell line or another target. No call is given for them. The list favours compounds with an active or inconclusive main result.

A short description of this assay: hepatocyte lipid droplet accumulation inhibitors, confirmation, imaging, AML12 mouse hepatocytes, single concentration, high-content (AID 463183).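 Further: cells counted after overnight compound exposure.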 The conditions noted are these: BODIPY lipid droplet imaging, measured here: cell count, cytotoxicity, at 5.2 µM, droplets induced with 100 µM oleic acid.
`COc1ccc(N2CCN(C(=O)c3cc(C)on3)CC2)cc1` had a cell count of 1600 cells.
With `CCCNS(=O)(=O)c1ccc(CCC(=O)Nc2cc(Cl)ccc2Oc2ccccc2)cc1` the figure was 1650 cells; with `CCOc1ccccc1NC(=O)CC1Nc2cc(C)c(C)cc2NC1=O` (configuration not stated), 1570 cells.
For `CCOc1ccc(CCNC(=O)c2cc(-c3ccccc3)c(N3CCOCC3)s2)cc1OCC`, the cell count was found to be 1660 cells.
Turning to `CCc1c(C#N)c(SCCC(=O)Nc2cccc(OC)c2)nc2c1C(=O)CC(C)(C)C2`, the cell count was 1620 cells.
Take `COc1ccc(-c2csc(NC(=O)c3ccc(OCC(=O)N4CCOCC4)c(OC)c3)n2)cc1OC`: the cell count was found to be 1560 cells.
Regarding `O=C(NCCc1nc2ccccc2[nH]1)c1ccc(Br)o1`, the cell count was determined as 1550 cells.
As for `C=C(C)c1cccc(C(C)(C)NC(=O)Nc2ccccc2OCC)c1`, the cell count came out at 1540 cells.
Then `CS(=O)(=O)Nc1ccc(C(=O)Nc2ccccc2C(=O)NCc2ccco2)cc1`, with 1600 cells.
Turning to `Oc1[nH]c2ccccc2c1N=Nc1nc(Nc2ccccc2)nc(N2CCOCC2)n1`, the cell count was found to be 610 cells.
In turn, `O=C(Cc1coc2ccc3ccccc3c12)NC1CCCc2ccccc21` (configuration not stated) came in with a cell count of 1510 cells.
Compound `O=c1c(C/C=C/c2ccccc2)c(O)ccn1CCc1c[nH]c2ccccc12` showed a cell count of 1600 cells.
As to `COCCN1C(=O)/C(=C/c2ccc(N3CCCC3)cc2C)SC1=S`, the cell count was 1600 cells.
`O=C1C(NS(=O)(=O)c2cccs2)=C(N2CCN(c3cccc(Cl)c3)CC2)C(=O)c2ccccc21` gave a cell count of 1520 cells.
The compound `CCOc1ccc(CCNC(=O)C2CCN(S(=O)(=O)N3CCCCC3)CC2)cc1OCC` had a cell count of 1610 cells.
With `COc1cc(NC(=O)c2cccs2)c(OC)cc1NC(=O)CCC(=O)Nc1ccc2ncccc2c1` the figure was 1560 cells; with `O=C(Nc1ccc([N+](=O)[O-])cn1)c1cc(-c2cccc(Cl)c2)nc2ccccc12`, 1600 cells.
